# Reference: PubChem BioAssay (EPA / NIEHS)
# By UniProt entry, the sequences of proteins in these tests, tags left out. Where a name states a change or a piece, a line headed by the entry shows the natural chain unless it says otherwise.
# UniProt P62136, whole entry, looked up: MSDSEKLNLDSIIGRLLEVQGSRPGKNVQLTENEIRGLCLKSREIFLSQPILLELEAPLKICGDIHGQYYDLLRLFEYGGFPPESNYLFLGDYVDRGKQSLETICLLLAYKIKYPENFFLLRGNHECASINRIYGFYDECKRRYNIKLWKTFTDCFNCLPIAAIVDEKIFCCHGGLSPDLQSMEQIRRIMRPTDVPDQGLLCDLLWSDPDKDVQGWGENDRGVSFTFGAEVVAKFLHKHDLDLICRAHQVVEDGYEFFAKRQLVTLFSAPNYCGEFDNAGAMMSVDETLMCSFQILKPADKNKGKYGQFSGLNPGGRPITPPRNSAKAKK
# UniProt P70536: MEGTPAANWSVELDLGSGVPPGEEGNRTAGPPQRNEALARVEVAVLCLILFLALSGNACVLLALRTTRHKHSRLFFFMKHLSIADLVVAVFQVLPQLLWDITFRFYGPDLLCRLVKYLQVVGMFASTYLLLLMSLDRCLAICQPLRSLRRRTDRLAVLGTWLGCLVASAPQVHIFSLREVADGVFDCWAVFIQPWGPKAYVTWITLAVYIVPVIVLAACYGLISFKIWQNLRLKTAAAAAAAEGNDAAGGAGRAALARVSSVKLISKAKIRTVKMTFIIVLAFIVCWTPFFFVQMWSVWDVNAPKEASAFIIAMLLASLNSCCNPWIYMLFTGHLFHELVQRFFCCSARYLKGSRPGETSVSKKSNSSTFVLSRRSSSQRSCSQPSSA
# UniProt P70606, whole entry, looked up: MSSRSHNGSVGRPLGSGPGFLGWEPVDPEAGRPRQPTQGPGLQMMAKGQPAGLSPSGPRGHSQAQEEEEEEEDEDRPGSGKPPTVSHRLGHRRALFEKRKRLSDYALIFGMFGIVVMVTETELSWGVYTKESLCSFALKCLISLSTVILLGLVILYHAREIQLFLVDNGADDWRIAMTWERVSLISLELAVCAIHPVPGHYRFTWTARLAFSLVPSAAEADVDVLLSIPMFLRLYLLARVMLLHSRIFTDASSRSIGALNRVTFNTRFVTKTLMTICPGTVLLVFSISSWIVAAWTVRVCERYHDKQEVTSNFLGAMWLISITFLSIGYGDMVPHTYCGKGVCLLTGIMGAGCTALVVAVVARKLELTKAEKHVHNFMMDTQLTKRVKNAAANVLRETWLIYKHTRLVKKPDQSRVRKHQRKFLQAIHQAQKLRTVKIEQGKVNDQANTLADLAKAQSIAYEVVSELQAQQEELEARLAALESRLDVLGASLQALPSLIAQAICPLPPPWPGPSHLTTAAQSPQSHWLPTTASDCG
# UniProt P48730: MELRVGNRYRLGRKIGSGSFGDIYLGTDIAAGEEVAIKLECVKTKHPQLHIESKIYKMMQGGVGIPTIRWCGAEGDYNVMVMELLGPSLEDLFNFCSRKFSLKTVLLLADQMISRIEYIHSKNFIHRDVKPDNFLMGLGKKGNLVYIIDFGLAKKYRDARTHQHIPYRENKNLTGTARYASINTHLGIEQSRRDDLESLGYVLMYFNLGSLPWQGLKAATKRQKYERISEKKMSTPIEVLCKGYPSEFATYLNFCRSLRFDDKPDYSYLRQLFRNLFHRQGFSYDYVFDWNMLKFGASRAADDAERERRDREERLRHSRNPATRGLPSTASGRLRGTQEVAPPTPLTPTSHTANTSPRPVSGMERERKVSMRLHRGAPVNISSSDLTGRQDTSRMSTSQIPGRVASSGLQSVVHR
# UniProt P43378: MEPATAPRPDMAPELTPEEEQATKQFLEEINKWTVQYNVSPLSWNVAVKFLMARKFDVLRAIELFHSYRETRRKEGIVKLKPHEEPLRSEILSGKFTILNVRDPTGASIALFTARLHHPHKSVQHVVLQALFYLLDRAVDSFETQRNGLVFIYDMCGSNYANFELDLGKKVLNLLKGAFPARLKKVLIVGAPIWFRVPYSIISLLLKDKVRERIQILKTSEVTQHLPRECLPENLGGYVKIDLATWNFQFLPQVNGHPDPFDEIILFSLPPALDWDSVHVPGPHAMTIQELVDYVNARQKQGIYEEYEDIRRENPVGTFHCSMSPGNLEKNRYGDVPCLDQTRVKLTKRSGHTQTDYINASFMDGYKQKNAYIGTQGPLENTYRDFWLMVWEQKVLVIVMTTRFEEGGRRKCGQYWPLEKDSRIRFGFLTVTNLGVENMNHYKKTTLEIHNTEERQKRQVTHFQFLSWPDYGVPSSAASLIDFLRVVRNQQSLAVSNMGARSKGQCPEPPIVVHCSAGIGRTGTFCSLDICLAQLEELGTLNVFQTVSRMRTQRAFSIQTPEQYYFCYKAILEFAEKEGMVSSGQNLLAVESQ
# UniProt P07333, whole entry, looked up: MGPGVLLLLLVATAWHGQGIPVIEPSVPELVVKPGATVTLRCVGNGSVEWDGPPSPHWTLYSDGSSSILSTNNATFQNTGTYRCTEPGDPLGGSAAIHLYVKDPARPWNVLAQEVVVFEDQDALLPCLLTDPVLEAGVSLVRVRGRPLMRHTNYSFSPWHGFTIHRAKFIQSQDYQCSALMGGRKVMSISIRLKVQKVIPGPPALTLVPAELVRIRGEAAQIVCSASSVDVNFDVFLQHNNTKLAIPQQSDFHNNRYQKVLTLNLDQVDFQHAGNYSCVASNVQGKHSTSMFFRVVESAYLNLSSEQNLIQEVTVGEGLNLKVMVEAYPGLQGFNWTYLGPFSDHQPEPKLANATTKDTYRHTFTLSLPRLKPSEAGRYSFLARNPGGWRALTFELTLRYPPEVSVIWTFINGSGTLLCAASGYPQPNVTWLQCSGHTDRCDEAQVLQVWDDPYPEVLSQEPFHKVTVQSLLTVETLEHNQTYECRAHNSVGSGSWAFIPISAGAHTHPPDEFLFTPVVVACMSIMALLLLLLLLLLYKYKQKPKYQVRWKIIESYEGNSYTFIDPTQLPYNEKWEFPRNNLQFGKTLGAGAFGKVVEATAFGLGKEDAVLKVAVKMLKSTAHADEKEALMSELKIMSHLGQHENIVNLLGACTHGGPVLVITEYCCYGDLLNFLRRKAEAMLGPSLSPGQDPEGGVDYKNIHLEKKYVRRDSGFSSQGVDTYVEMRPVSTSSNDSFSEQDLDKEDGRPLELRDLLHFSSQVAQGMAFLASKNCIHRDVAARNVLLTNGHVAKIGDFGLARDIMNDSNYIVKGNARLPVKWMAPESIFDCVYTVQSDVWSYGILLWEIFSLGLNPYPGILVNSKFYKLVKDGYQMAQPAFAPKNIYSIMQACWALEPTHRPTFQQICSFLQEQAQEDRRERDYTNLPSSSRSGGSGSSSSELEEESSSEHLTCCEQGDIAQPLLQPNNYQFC
# UniProt Q14790: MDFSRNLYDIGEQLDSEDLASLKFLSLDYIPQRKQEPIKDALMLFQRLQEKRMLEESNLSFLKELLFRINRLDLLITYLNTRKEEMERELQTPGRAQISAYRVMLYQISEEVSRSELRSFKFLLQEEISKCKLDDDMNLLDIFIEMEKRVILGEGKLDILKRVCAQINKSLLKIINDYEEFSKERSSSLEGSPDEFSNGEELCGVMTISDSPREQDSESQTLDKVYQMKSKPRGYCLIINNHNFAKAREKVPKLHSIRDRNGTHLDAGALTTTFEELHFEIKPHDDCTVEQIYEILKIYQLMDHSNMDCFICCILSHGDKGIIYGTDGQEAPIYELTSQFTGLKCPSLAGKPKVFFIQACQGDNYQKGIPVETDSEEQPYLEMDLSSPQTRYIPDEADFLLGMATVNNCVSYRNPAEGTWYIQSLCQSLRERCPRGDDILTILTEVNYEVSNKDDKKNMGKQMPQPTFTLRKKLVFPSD
# UniProt P14780: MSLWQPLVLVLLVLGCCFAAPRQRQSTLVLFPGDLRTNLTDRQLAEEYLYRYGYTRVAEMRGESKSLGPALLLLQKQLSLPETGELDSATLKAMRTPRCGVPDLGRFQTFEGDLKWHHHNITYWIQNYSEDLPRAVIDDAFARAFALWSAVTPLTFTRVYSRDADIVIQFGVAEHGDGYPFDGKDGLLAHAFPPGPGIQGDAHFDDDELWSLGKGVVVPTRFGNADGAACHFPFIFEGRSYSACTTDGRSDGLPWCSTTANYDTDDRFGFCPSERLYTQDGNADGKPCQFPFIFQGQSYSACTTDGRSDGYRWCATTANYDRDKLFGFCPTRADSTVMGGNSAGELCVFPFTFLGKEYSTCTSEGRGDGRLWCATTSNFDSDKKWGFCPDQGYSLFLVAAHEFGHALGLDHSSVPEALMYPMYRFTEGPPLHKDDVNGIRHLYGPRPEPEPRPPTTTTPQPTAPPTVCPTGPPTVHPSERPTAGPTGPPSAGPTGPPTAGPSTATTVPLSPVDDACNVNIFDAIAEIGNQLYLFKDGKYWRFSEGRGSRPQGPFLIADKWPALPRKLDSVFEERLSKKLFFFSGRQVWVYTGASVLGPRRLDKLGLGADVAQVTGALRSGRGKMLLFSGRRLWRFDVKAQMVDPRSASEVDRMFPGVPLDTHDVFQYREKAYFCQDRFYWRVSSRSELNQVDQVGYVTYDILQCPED
# UniProt P27815: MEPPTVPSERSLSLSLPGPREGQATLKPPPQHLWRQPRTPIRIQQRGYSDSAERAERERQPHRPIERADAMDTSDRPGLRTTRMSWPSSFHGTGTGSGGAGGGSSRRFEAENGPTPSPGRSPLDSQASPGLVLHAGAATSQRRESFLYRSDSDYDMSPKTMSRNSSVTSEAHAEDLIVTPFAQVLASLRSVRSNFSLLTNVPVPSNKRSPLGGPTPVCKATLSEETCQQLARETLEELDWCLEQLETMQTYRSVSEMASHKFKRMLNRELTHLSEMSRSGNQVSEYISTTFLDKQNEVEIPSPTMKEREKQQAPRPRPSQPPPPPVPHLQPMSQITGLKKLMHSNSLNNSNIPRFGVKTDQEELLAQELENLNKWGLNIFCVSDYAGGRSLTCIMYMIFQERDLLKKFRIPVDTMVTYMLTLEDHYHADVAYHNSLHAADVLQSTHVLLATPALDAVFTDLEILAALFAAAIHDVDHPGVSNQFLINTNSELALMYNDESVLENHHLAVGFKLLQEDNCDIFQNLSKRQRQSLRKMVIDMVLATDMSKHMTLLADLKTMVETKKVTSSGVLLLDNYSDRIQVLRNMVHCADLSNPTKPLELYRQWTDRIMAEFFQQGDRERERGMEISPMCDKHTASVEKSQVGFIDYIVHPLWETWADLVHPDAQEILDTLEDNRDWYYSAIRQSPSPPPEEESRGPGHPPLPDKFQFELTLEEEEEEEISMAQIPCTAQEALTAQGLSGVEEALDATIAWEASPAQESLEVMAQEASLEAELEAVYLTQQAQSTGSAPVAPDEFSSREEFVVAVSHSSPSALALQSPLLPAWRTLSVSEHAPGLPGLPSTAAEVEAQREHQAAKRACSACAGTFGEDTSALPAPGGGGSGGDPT
# UniProt P49146, whole entry, looked up: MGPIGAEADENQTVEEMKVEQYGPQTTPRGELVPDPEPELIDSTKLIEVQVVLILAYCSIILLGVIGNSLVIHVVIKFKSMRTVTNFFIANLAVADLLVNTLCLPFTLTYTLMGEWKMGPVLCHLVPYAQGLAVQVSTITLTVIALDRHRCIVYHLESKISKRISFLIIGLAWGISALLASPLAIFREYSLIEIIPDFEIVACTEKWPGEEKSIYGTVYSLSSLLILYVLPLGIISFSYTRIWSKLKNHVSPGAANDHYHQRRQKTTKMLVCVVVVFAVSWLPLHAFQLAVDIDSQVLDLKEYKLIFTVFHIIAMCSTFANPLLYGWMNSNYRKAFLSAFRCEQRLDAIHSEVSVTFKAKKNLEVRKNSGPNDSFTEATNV
# UniProt P10276, whole entry, looked up: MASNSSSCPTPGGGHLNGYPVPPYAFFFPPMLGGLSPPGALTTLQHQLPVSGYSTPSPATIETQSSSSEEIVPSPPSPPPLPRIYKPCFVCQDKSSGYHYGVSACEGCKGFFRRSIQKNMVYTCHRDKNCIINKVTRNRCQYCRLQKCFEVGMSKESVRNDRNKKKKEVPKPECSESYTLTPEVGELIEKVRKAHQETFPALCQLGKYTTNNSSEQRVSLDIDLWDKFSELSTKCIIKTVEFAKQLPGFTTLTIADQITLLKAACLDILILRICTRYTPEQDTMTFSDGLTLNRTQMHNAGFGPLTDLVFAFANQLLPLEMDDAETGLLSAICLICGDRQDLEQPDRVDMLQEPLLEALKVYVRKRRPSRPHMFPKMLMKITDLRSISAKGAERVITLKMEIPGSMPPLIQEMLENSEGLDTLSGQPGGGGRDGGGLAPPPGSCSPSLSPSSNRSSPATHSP
# Inconclusive results, whose numbers are uncertain, are shown with a selection of clear calls. For some of these results: A potency beside an inconclusive call is a rough fit, not a confirmed value. Calls of active or inactive are those of the source. Rule for the calls: active = hit-call score of the fitted dose curve at least 0.9, where 1 is the maximum; inconclusive = response in the unintended direction; inactive = score below 0.9.
# Key:
# [1] = molecular target: Serine/threonine-protein phosphatase PP1-alpha catalytic subunit (Homo sapiens) (UniProt P62136); assay: NVS_ENZ_hPPP1CA: NovaScreen (NVS) Enzymatic Assay for human Protein Phosphatase 1 Aatalytic subunit Alpha (PPP1CA) (AID 2283200)
# In short: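 Chemicals were first screened in duplicate at 25 uM, and those passing threshold (e.g. 30% inhibition) were run as concentration series to 50 uM. Cell-free recombinant protein, 1.33 h read, fluorescent substrate/product mobility-shift detection, normalised to DMSO.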
# [2] = molecular target: rat Oxytocin Receptor (OXT), Oxtr (gene 25342) (UniProt P70536); assay: NVS_GPCR_rOXT: NovaScreen (NVS) G Protein-Coupled Receptor Assay for rat Oxytocin Receptor (OXT) (AID 2283330)
# In short: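 Binding to rat uterine membrane receptor was followed by scintillation counting of filter-trapped radioligand after 1 h. A 25 uM duplicate single-point screen preceded concentration series with a top of 50 uM. Signal loss was analysed relative to DMSO.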
# [3] = molecular target: Small conductance calcium-activated potassium channel protein 1 (Rattus norvegicus) (UniProt P70606); assay: NVS_IC_rKCaCh: NovaScreen (NVS) Ion Channel Assay for rat Potassium Channel, Ca2+ Act., VI (KCaCh) (AID 2283336)
# In short: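 Filter-based scintillation counting of radioligand bound to rat forebrain membrane preparations, measured 1 h after compound addition. Primary screen used 25 uM in duplicate, with concentration-response follow-up; signal decrease relative to DMSO marks activity.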
# [4] = molecular target: human Casein Kinase 1-delta (CK1D), CSNK1D (gene 1453) (UniProt P48730); assay: NVS_ENZ_hCK1D: NovaScreen (NVS) Enzymatic Assay for human Casein Kinase 1-delta (CK1D) (AID 2283148)
# In short: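 Recombinant human CK1-delta, cell-free; fluorescent substrate with electrophoretic mobility-shift separation of product, read 1 h after dosing. Single 25 uM duplicate screen, then concentration-response up to 50 uM; loss of signal vs DMSO.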
# [5] = read-out: sulfotransferase (SULT2A), SULT2A1 (gene 6822); assay: CLD_SULT2A_24hr: CellzDirect (CLD) Gene Expression Assay for sulfotransferase (SULT2A) at 24 hours (AID 2283694);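 for AC50: potency for increased SULT2A1 mRNA level as induction over DMSO baseline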
# In short: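 mRNA is measured by qNPA: probe hybridisation, S1 nuclease digestion, chemiluminescence, in lysates from human primary hepatocytes harvested 24 h after daily dosing. Vehicle was 0.2% DMSO. Phase-contrast microscopy flagged cytotoxicity (yes/no).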
# [6] = molecular target: human Protein Tyrosine Phosphatase Non-receptor Type 9 (PTPN9), PTPN9 (gene 5780) (UniProt P43378); assay: NVS_ENZ_hPTPN9: NovaScreen (NVS) Enzymatic Assay for human Protein Tyrosine Phosphatase Non-receptor Type 9 (PTPN9) (AID 2283209)
# In short: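 Sf9-expressed enzyme in a cell-free assay, fluorescence read 1.33 h after dosing with mobility-shift separation of substrate and product. Tested at 25 uM in duplicate, then up to 50 uM; signal loss versus DMSO.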
# [7] = molecular target: human Colony Stimulating Factor 1 Receptor (CSF1R), CSF1R (gene 1436) (UniProt P07333); assay: NVS_ENZ_hCSF1R: NovaScreen (NVS) Enzymatic Assay for human Colony Stimulating Factor 1 Receptor (CSF1R) (AID 2283150)
# In short: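 Compounds screened in duplicate at 25 uM, then concentration-response (top 50 uM) for those passing threshold such as 30% inhibition; recombinant CSF1R activity measured 1 h post-dosing via fluorescent substrate/product mobility-shift separation, loss of signal versus DMSO.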
# [8] = molecular target: human Caspase 8 (CASP8), CASP8 (gene 841) (UniProt Q14790); assay: NVS_ENZ_hCASP8: NovaScreen (NVS) Enzymatic Assay for human Caspase 8 (CASP8) (AID 2283146)
# In short: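 The primary screen tested compounds in duplicate at a single 25 uM concentration, with actives followed up in concentration series. Activity of recombinant (E. coli) protease was measured by fluorescence 1 h post-dose, as signal loss against DMSO.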
# [9] = molecular target: human Matrix Metalloproteinase-9 (MMP9), MMP9 (gene 4318) (UniProt P14780); assay: NVS_ENZ_hMMP9: NovaScreen (NVS) Enzymatic Assay for human Matrix Metalloproteinase-9 (MMP9) (AID 2283190);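 note: cell-free recombinant MMP9 protease activity read by fluorescent substrate signal; active means inhibition seen as loss of fluorescence signal versus DMSO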
# In short: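 Inhibition was scored as loss of fluorescence signal against DMSO controls. The recombinant protease was exposed to chemicals for 1 hour before reading; initial testing used 25 uM in duplicate.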
# [10] = CCTE_Mundy_HCI_hNP1_CellTiter: CCTE's Cell Titer-Glo 2 Assay in human neuroprogenitor cells for Viability, Mundy Lab (AID 2284241);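 for AC50: a hit is a drop in ATP luminescence versus DMSO meaning reduced viability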
# In short: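 Measures ATP content in human neural progenitors derived from WA09 embryonic cells. Read-out at 26.5 hours after dosing, with DMSO serving as the negative control and baseline.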
# [11] = CCTE_Mundy_HCI_iCellGluta_NOG_NeuriteLength: CCTE's Neurite Outgrowth Assay in iCellGluta cells for Neurite Length, Mundy Lab (AID 2284318)
# In short: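 Automated high-content imaging of betaIII-tubulin (Alexa Fluor-488) and Hoechst-stained cells gave neurite length, normalized to the DMSO baseline.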
# [12] = CCTE_Mundy_HCI_iCellGluta_NOG_NeuriteCount: CCTE's Neurite Outgrowth Assay in iCellGluta cells for Neurite Count, Mundy Lab (AID 2284342);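 note: chemical exposure about 48 hours starting 2 hours after plating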
# [13] = molecular target: human Phosphodiesterase 4A1 (PDE4A1), PDE4A (gene 5141) (UniProt P27815); assay: NVS_ENZ_hPDE4A1: NovaScreen (NVS) Enzymatic Assay for human Phosphodiesterase 4A1 (PDE4A1) (AID 2283191)
# In short: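 Fluorescent substrate turnover by recombinant PDE4A1 read after 1 h by mobility-shift separation. Primary duplicate screen at 25 uM; hits retested in concentration series with a 50 uM maximum, relative to DMSO.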
# [14] = molecular target: Neuropeptide Y receptor type 2 (Homo sapiens) (UniProt P49146); assay: NVS_GPCR_hNPY2: NovaScreen (NVS) G Protein-Coupled Receptor Assay for human Neuropeptide Receptor Y2 (NPY2) (AID 2283277)
# In short: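 Chemicals were first tested in duplicate at 25 uM, then actives in singleton concentration series to 50 uM. Tracer binding to SK-N-MC-derived protein measured cell-free after 1 h via filter scintillation; signal loss relative to DMSO.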
# [15] = molecular target: Retinoic acid receptor alpha (Homo sapiens) (UniProt P10276); assay: NVS_NR_hRAR_Antagonist: NovaScreen (NVS) Nuclear Receptor Binding Assay for human Retinoic Acid Alpha Receptor Antagonism (RAR) (AID 2283358)
# In short: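 Chemicals were first tested in duplicate at 25 uM, then actives in concentration series, in a cell-free TR-FRET antagonist binding format. Measurements were taken 2 hours after dosing and loss of signal was evaluated against DMSO controls.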
# [16] = ArunA_CellTiter_hNP: Viability Assessment in the ArunA Biomedical's Oris Neural Crest (hNC) Cell Migration Assay (AID 2283753)
# In short: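 Viability read with CellTiter 96 Aqueous One after 72 h chemical exposure of human hNP1 neuroprogenitors, which were plated on Matrigel in LIF/bFGF medium 16 h beforehand. Endpoint fitted in positive direction relative to DMSO.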
# [17] = ArunA_Migration_hNP: ArunA Biomedical's Oris Neuroprogenitor (hNP) Cell Migration Assay (AID 2283754)
# In short: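 Readout is calcein-AM fluorescence (ex494/em517) of cells migrating into the detection zone, relative to DMSO. hNP1 cells (H9-derived) grown on Matrigel behind stoppers 16 h, then stoppers pulled and chemical applied 72 h; cytochalasin D as control.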
# [18] = ArunA_Migration_hNC: ArunA Biomedical's Oris Neural Crest (hNC) Cell Migration Assay (AID 2283755)
# In short: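 Calcein-AM fluorescence (ex494 nm/em 517 nm) in the stopper-defined detection zone quantifies migration of hNC cells after 72 h chemical exposure; 60,000 cells/well plated on Matrigel with LIF and bFGF, 16 h pre-incubation. DMSO baseline.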
# [19] = VALA_TUBHUV_Antagonist_CellCount: Viability Assessment in the VALA Sciences human Umbilical Vein Endothelial Tubule Formation (TUBHUV) Antagonism Assay (AID 2284310)
# In short: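 Read-out is imaged cell count after nuclear and CD31 staining, fitted against 0.1% DMSO vehicle. Compounds were added for 3 days, in 10 ng/ml VEGF assay medium, to HUVEC–HDF co-cultures pre-grown 3 days.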
# [20] = VALA_MIGHUV2_CellCount: Viability Assessment in the VALA Sciences human Umbilical Vein Endothelial Cell Migration (MIGHUV) Assay, Area of Scratch Wound after Recovery (AID 2284314)
# In short: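 Viability read-out: Hoechst-stained nuclei counted by fluorescence imaging after a 24 h recovery period in fixed, scratched HUVEC plates. Compound was dosed within 30 min of scratching at six concentrations (triplicate); DMSO at 0.1 % served as baseline.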
smiles,measurement,setting,value
O=P(O)(O)CCCl,AC50,[1],active: 9.89 µM
same,outcome,[2],inactive
same,AC50,[3],inconclusive: 16.9 µM
CCNc1nc(NC(C)C)nc(SC)n1,AC50,[4],active: 16.3 µM
same,outcome,[5],inactive
CCN(CC)CCO,outcome,[6],inactive
Clc1cccc(Cl)c1Cl,AC50,[4],inconclusive: 0.0893 µM
same,AC50,[7],inconclusive: 25 µM
same,AC50,[1],inconclusive: 25 µM
same,AC50,[6],inconclusive: 0.0504 µM
CCCCCCCCOC(=O)c1ccc(C(=O)OCCCCCCCC)c(C(=O)OCCCCCCCC)c1,AC50,[8],inconclusive: 25.2 µM
N#Cc1cccc(C#N)c1,AC50,[9],active: 7.24 µM
CNC(=N[N+](=O)[O-])NCC1CCOC1 (stereo not given),AC50,[10],inconclusive: 0.000447 µM
same,AC50,[11],inconclusive: 0.000161 µM
same,AC50,[12],inconclusive: 0.0221 µM
CN(C)c1ccc(C(=O)c2ccc(N(C)C)cc2)cc1,outcome,[13],inactive
O=c1n(Cl)c(=O)n(Cl)c(=O)n1Cl,AC50,[7],inconclusive: 25 µM
same,AC50,[14],inconclusive: 25 µM
same,outcome,[15],inactive
CCC[N+](=O)[O-],AC50,[9],active: 6.06 µM
O=P(OCCCl)(OCCCl)OCCCl,AC50,[16],inconclusive: 50 µM
same,outcome,[17],inactive
same,outcome,[18],inactive
same,AC50,[19],active: 88.3 µM
same,outcome,[20],inactive
CC(C)[C@@H](Nc1ccc(C(F)(F)F)cc1Cl)C(=O)OC(C#N)c1cccc(Oc2ccccc2)c1 (stereo not given in full),AC50,[12],inconclusive: 0.00158 µM
Nc1ncn[nH]1,AC50,[16],inconclusive: 0.781 µM
same,AC50,[17],inconclusive: 50 µM
same,AC50,[18],inconclusive: 50 µM
same,AC50,[19],inconclusive: 1.23 µM
same,AC50,[20],inconclusive: 0.00563 µM
CCCSP(=O)(OCC)Oc1ccc(Br)cc1Cl (stereo not given),outcome,[10],inactive
CCCSC(=O)N(CCC)CCC,AC50,[2],inconclusive: 44.3 µM
COP(=O)(NC(C)=O)SC (stereo not given),AC50,[11],inconclusive: 0.00246 µM
CC(C)C1(C)N=C(c2ncccc2C(=O)O)NC1=O (stereo not given),AC50,[14],inconclusive: 25 µM
COC(=O)c1ccccc1N,AC50,[8],active: 11.1 µM
CCCN(CC)CC1COC2(CCC(C(C)(C)C)CC2)O1 (stereo not given),AC50,[15],inconclusive: 25 µM
CN(C)C(=O)Nc1cccc(C(F)(F)F)c1,outcome,[3],inactive
same,AC50,[5],inconclusive: 20 µM
Clc1ccccc1Cl,AC50,[13],inconclusive: 25 µM

# Two entries from above in a different format:
smiles	measurement	setting	value
Nc1ncn[nH]1	AC50	[17]	inconclusive: 50 µM
Clc1ccccc1Cl	AC50	[13]	inconclusive: 25 µM
